PubChem BioAssay AID1671195 – Yale University, 2021
In all, the deposit lists about 22,000 reagents; below is a random part of them. Over the whole deposit, about 1,510 (6.9%) were called active. 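Active includes knockdowns raising or lowering LDL uptake; positive z-scores mean more uptake, negative mean less.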 A number with no mark means an inactive call.

Assay: 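Knockdowns that increase or decrease uptake of fluorescent LDL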 (primary screen)
Cells: human Huh7 hepatoma cells
Knock-down reagent: siRNA pool against human genes, 18 nM
Duration: about 2 to 2.5 days of knockdown, then 8 h LDL uptake
Challenge: DiI-labelled LDL at 30 µg/ml for 8 h, in lipoprotein-deficient serum medium
Measured: 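Fluorescent LDL signal imaged in cells, scaled to the plate median, robust z-score for each replicate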
Reading the numbers: robust z-score: higher = more LDL uptake after knockdown
Hit rule: 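Active when two or more replicates show a robust z-score above 2 or below -2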

KDELR1 (KDEL endoplasmic reticulum protein retention receptor 1)
- robust z-score, replicate 1: 0.184
- robust z-score, replicate 2: -0.334
- robust z-score, replicate 3: -0.0586

AAAS (aladin WD repeat nucleoporin)
- robust z-score, replicate 1: -0.939
- robust z-score, replicate 2: -0.32
- robust z-score, replicate 3: 0.322

SFRP4 (secreted frizzled related protein 4)
- robust z-score, replicate 1: 1.92 (active)
- robust z-score, replicate 2: 2.07
- robust z-score, replicate 3: -0.2

CTBP2 (C-terminal binding protein 2)
- robust z-score, replicate 1: -1.74
- robust z-score, replicate 2: -1.06
- robust z-score, replicate 3: -1.91

RARG (retinoic acid receptor gamma)
- robust z-score, replicate 1: 0.0326
- robust z-score, replicate 2: -0.614
- robust z-score, replicate 3: -0.878

DIPK1B (divergent protein kinase domain 1B)
- robust z-score, replicate 1: -0.908
- robust z-score, replicate 2: -1.17
- robust z-score, replicate 3: -0.0406

LOC400572 (retired record)
- robust z-score, replicate 1: 1.75
- robust z-score, replicate 2: 1.24
- robust z-score, replicate 3: 1.43

AFF1 (ALF transcription elongation factor 1)
- robust z-score, replicate 1: 0.857
- robust z-score, replicate 2: 0.744
- robust z-score, replicate 3: 0.247

MALT1 (MALT1 paracaspase)
- robust z-score, replicate 1: -0.767
- robust z-score, replicate 2: -1.67
- robust z-score, replicate 3: -1.01

H3-5 (H3.5 histone)
- robust z-score, replicate 1: 1.47
- robust z-score, replicate 2: 0.754
- robust z-score, replicate 3: 0.546

GTPBP2 (GTP binding protein 2)
- robust z-score, replicate 1: 0.124
- robust z-score, replicate 2: 1.01
- robust z-score, replicate 3: 0.891

PRSS51 (serine protease 51)
- robust z-score, replicate 1: 1.82
- robust z-score, replicate 2: 1.05
- robust z-score, replicate 3: 1.33

SEC23A (SEC23 homolog A, COPII component)
- robust z-score, replicate 1: 1.25
- robust z-score, replicate 2: 0.682
- robust z-score, replicate 3: 1.39

OR5B17 (olfactory receptor family 5 subfamily B member 17)
- robust z-score, replicate 1: 0.145
- robust z-score, replicate 2: -0.622
- robust z-score, replicate 3: -0.404

SNIP1 (Smad nuclear interacting protein 1)
- robust z-score, replicate 1: -0.244
- robust z-score, replicate 2: -0.916
- robust z-score, replicate 3: -0.321

UGT8 (UDP glycosyltransferase 8)
- robust z-score, replicate 1: 0.892
- robust z-score, replicate 2: 0.778
- robust z-score, replicate 3: 0.83

DCUN1D4 (defective in cullin neddylation 1 domain containing 4)
- robust z-score, replicate 1: 1.1
- robust z-score, replicate 2: -1.35
- robust z-score, replicate 3: 0.844

WIPI1 (WD repeat domain, phosphoinositide interacting 1)
- robust z-score, replicate 1: 0.684
- robust z-score, replicate 2: 1.09
- robust z-score, replicate 3: 1.51

AKR1C8 (aldo-keto reductase family 1 member C8)
- robust z-score, replicate 1: -0.308
- robust z-score, replicate 2: -0.0423
- robust z-score, replicate 3: 0.318

OR52L1 (olfactory receptor family 52 subfamily L member 1)
- robust z-score, replicate 1: -2.04 (active)
- robust z-score, replicate 2: -2.15
- robust z-score, replicate 3: -2.31

DRC11 (dynein regulatory complex subunit 11)
- robust z-score, replicate 1: 2.05 (active)
- robust z-score, replicate 2: 2.16
- robust z-score, replicate 3: 2.2

SERPINA3 (serpin family A member 3)
- robust z-score, replicate 1: 1.94 (active)
- robust z-score, replicate 2: 1.04
- robust z-score, replicate 3: 2

MARVELD2 (MARVEL domain containing 2)
- robust z-score, replicate 1: 0.0196
- robust z-score, replicate 2: -0.604
- robust z-score, replicate 3: 0.518

PAX6 (paired box 6)
- robust z-score, replicate 1: 1.55
- robust z-score, replicate 2: 0.656
- robust z-score, replicate 3: 1.85

ZSCAN10 (zinc finger and SCAN domain containing 10)
- robust z-score, replicate 1: 1.99 (active)
- robust z-score, replicate 2: 2.15
- robust z-score, replicate 3: 1.46

WFDC3 (WAP four-disulfide core domain 3)
- robust z-score, replicate 1: -1.11
- robust z-score, replicate 2: -1.78
- robust z-score, replicate 3: -1.39

KIF3C (kinesin family member 3C)
- robust z-score, replicate 1: 1.16
- robust z-score, replicate 2: 0.29
- robust z-score, replicate 3: -0.737

NDST3 (N-deacetylase and N-sulfotransferase 3)
- robust z-score, replicate 1: -0.576
- robust z-score, replicate 2: -0.674
- robust z-score, replicate 3: -0.189

RPS12P3 (ribosomal protein S12 pseudogene 3)
- robust z-score, replicate 1: 0.099
- robust z-score, replicate 2: 0.00196
- robust z-score, replicate 3: 0.0394

AMN1 (antagonist of mitotic exit network 1 homolog)
- robust z-score, replicate 1: 1.61
- robust z-score, replicate 2: 1.23
- robust z-score, replicate 3: 2.51

Part of the list above in another layout.
target gene,"robust z-score, replicate 1","robust z-score, replicate 2","robust z-score, replicate 3"
OR52L1 (olfactory receptor family 52 subfamily L member 1),-2.04 (active),-2.15,-2.31
DRC11 (dynein regulatory complex subunit 11),2.05 (active),2.16,2.2
